Some results were stated once for a whole list of compounds, not compound by compound.
Tested on: EAMG rats
Test: Electromyography: CMAP ratio under repetitive 3 Hz nerve stimulation in EAMG rats
Type: in vivo, rat
Settings: single oral dose; rEN101 50 μg/kg, pyridostigmine 1000 μg/kg

Molecule | Time to relief of declining CMAP responses
5′-CTGCGATATTTTCTTGTACC-3′ (chemistry not given here) [rEN101] | ≤ 1 h
CN(C)C(=O)Oc1ccc[n+](C)c1 [pyridostigmine, reference compound] | ≤ 1 h
